Reference: the supplement of paper PMC8256030
Values joined by “and” are separate entries in the source; they are usually repeats but may differ in a detail not shown here. Equal entries are not always repeated. Structures can show the parent of a compound that is named as a salt. The list shows a part of the results. This data set is noisy: repeats of one test often differ as much as different tests do.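 HEK293T cells were given each compound shortly before transfection with a reporter in which red mCherry is followed by the SARS-CoV-2 frameshift element and then GFP in the −1 frame, so GFP appears only after frameshifting.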

How the values were obtained:
[1] = system: SARS-CoV-2 -1 PRF reporter mCherry-FSE-GFP(-1); test: mCherry (red) intensity as percent of control; higher = higher upstream reporter expression; settings: 10 µM; 24 h; HEK293T
[2] = system: SARS-CoV-2 -1 PRF reporter mCherry-FSE-GFP(-1); test: percent effect, decrease of GFP/mCherry ratio (-1 PRF reporter) relative to controls; higher = stronger frameshift inhibition; settings: 10 µM; 24 h; HEK293T

Row | Compound | mCherry [1] | percent effect [2]
1 | Nc1ccc(S(=O)(=O)Nc2ccccc2)cc1 [sulfabenz] | 128% | -5.33%
2 | N=C(N)NCc1ccc2c(c1)OCCO2 [guabenxan] | 89.7% | 0.103%
3 | C1CNCCN1 | 97.4% | -3.6%
4 | O=C(Nc1ccc(Cl)cc1)Nc1ccc(Cl)c(Cl)c1 [triclocarban] | 35.1% | -13.6%
5 | CC(C)(C)NCC(O)COc1ccc(NC(=O)NC2CCCCC2)cc1 (stereo not drawn) [talinolol] | 72.7% | -6.89%
6 | C1N2CN3CN1CN(C2)C3 [methenamine] | 98% | -4.42%
7 | N=C(N)N/N=C/c1c(Cl)cccc1Cl | 104% | -7.63%
8 | CCC(C)(Oc1ccc(C2(c3ccc(OC(C)(CC)C(=O)O)cc3)CCCCC2)cc1)C(=O)O (stereo not drawn) [Clinofibrate] | 87.7% | -2.91%
9 | CCCCC1(COC(=O)CCC(=O)O)C(=O)N(c2ccccc2)N(c2ccccc2)C1=O [suxibuzone] | 102% | -0.947%
10 | CC(=O)/N=c1/sc(S(N)(=O)=O)nn1C [methazolamide] | 94.1% | 2.11%
11 | CCC(=O)c1ccc2c(c1)N(CCCN1CCN(CCO)CC1)c1ccccc1S2 [carfenazine] | 41.9% | -6.49%
12 | NNC(=O)c1ccncc1.Nc1ccc(C(=O)O)c(O)c1 [pasiniazid] | 85.9% | -2.66%
13 | Cc1ccc(S(=O)(=O)NC(=O)NC2CCCC2)cc1 [tolpentamide] | 77.9% | -4.41%
14 | Nc1ncnc2c1ncn2[C@@H]1O[C@H](CO)[C@@H](O)[C@@H]1O [vidarabine] | 92.8% and 82.8% | -2.03% and 1.13%
15 | Cc1cc(O)cc(C)c1Cl [chloroxylenol] | 93.6% | 0.397%
16 | c1ccc(CC2=NCCN2)cc1 [tolazoline] | 117% | -7.25%
17 | CCCc1c2oc(C(=O)O)cc(=O)c2cc2c(=O)cc(C(=O)O)n(CC)c12 [nedocromil] | 103% | -1.11%
18 | CC[C@@]1(O)C[C@H](O[C@H]2C[C@H](N(C)C)[C@H](O[C@H]3C[C@H](O)[C@H](O[C@H]4CCC(=O)[C@H](C)O4)[C@H](C)O3)[C@H](C)O2)c2c(cc3c(c2O)C(=O)c2c(O)cccc2C3=O)[C@H]1C(=O)OC [Aclarubicin] | 93.2% | 33.3%
19 | CN1N=C(C(N)=O)CCC1=O [medazomide] | 113% | 1.63%
20 | CN(C)CCC=C1c2ccccc2C=Cc2ccccc21 | 104% | -2.35%
21 | NS(=O)(=O)c1cc(C2(O)NC(=O)c3ccccc32)ccc1Cl (stereo not drawn) [chlortalidone] | 127% | -3.69%
22 | C=N[C@@H](C(=O)N[C@@H]1C(=O)N2[C@@H]1SC(C)(C)[C@@H]2C(=O)O)c1ccccc1 | 81.6% | -2.74%
23 | O=C(O)c1ccc[n+]([O-])c1 [oxiniacic acid] | 100% | -1.63%

Row | Compound | mCherry [1] | percent effect [2]
24 | O=C1CN(/N=C/c2ccc(-c3ccc(Cl)c(Cl)c3)o2)C(=O)N1 [clodanolene] | 104% | -8.99%
25 | CCCNS(=O)(=O)Nc1ncnc(OCCOc2ncc(Br)cn2)c1-c1ccc(Br)cc1 | 89.9% | -0.953%
26 | CSCC[C@H](N)C(=O)O [methionine] | 111% | -3.88%
27 | C#C[C@]1(O)CC[C@H]2[C@@H]3CCC4=CC(=O)CC[C@@H]4[C@H]3C(=C)C[C@@]21CC [etonogestrel] | 111% | -2.37%
28 | CN(CCCN1c2ccccc2CCc2ccccc21)CC(=O)c1ccc(Cl)cc1 [lofepramine] | 116% | -4.85%
29 | CCCC1O[C@@H]2C[C@H]3[C@@H]4CCC5=CC(=O)C=C[C@]5(C)[C@H]4[C@@H](O)C[C@]3(C)[C@]2(C(=O)CO)O1 (stereo partly drawn) | 126% | -10.3%
30 | CC(C(=O)O)c1ccc(C(=O)c2ccccc2)s1 (stereo not drawn) [tiaprofenic acid] | 74.1% | -4.48%
31 | C=C1CCN([C@H](C)[C@](O)(Cn2cncn2)c2ccc(F)cc2F)CC1 [Efinaconazole] | 102% | -0.113%
32 | O=C1C(=O)c2ccccc2C(O)=C1C1CCC(c2ccc(Cl)cc2)CC1 (stereo not drawn) [atovaquone] | 91.2% | -1.41%
33 | COc1ccc(C(=O)CC(=O)c2ccc(C(C)(C)C)cc2)cc1 [avobenzone] | 106% | -0.875%
34 | Cc1oc(=O)oc1CN1CCN(c2cc3c(cc2F)c(=O)c(C(=O)O)c2n3C(C)S2)CC1 (stereo not drawn) [prulifloxacin] | 101% | -0.992%
35 | Cc1cccc(C(=O)O)c1O | 90.7% | 0.887%
36 | CCCNC(=O)NS(=O)(=O)c1ccc(Cl)cc1 [Chlorpropamide] | 90.7% | -4%
37 | CCCCCCCCCC(=O)N[C@H]1[C@H](Oc2c3cc4cc2Oc2ccc(cc2Cl)[C@@H](O[C@@H]2O[C@H](CO)[C@@H](O)[C@H](O)[C@H]2NC(C)=O)[C@@H]2NC(=O)[C@H](NC(=O)[C@@H]4NC(=O)[C@H]4NC(=O)[C@@H](Cc5ccc(c(Cl)c5)O3)NC(=O)[C@H](N)c3ccc(O)c(c3)Oc3cc(O)cc4c3)c3ccc(O)c(c3)-c3c(OC4O[C@H](CO)[C@@H](O)[C@H](O)[C@@H]4O)cc(O)cc3[C@@H](C(=O)O)NC2=O)O[C@H](CO)[C@@H](O)[C@@H]1O (stereo partly drawn) | 100% | -2.14%
38 | C(=C\c1ccccc1)/CN1CCN(C(c2ccccc2)c2ccccc2)CC1 | 108% | -0.206%
39 | COc1ccc2[nH]cc(CCNC(C)=O)c2c1 [Melatonin] | 69% | -6.56%
40 | Nc1ncnc2nc[nH]c12 | 93.9% | -9.86%
41 | CCCSS/C(CCO)=C(/C)N(C=O)Cc1cnc(C)nc1N [prosultiamine] | 95.5% | -1.6%
42 | CCOC(=O)c1nc(=O)c2cc3cc(OC)c(OC)cc3nc2[nH]1 [pirolate] | 95.4% | -1.02%
43 | O=C(O)CN(CCN(CC(=O)O)CC(=O)O)CC(=O)O [edetic acid] | 112% | -0.35%
44 | CS(=O)(=O)NC(=O)CCC/C=C\C[C@H]1C(=O)C[C@@H](O)[C@@H]1/C=C/[C@@H](O)COc1ccccc1 [sulprostone] | 63.1% | -11.1%
45 | O=C1O[C@H]([C@@H](O)CO)C(O)=C1O [ascorbic acid] | 83.3% | -10.2%
46 | CC(CN1c2ccccc2Sc2ccccc21)N(C)C (stereo not drawn) [promethazine] | 92.1% and 105% | 2.86% and -10.2%

Some of these compounds in order of length of the SMILES, falling.
Row | Compound | mCherry [1] | percent effect [2]
18 | CC[C@@]1(O)C[C@H](O[C@H]2C[C@H](N(C)C)[C@H](O[C@H]3C[C@H](O)[C@H](O[C@H]4CCC(=O)[C@H](C)O4)[C@H](C)O3)[C@H](C)O2)c2c(cc3c(c2O)C(=O)c2c(O)cccc2C3=O)[C@H]1C(=O)OC [Aclarubicin] | 93.2% | 33.3%
29 | CCCC1O[C@@H]2C[C@H]3[C@@H]4CCC5=CC(=O)C=C[C@]5(C)[C@H]4[C@@H](O)C[C@]3(C)[C@]2(C(=O)CO)O1 (stereo partly drawn) | 126% | -10.3%
44 | CS(=O)(=O)NC(=O)CCC/C=C\C[C@H]1C(=O)C[C@@H](O)[C@@H]1/C=C/[C@@H](O)COc1ccccc1 [sulprostone] | 63.1% | -11.1%
27 | C#C[C@]1(O)CC[C@H]2[C@@H]3CCC4=CC(=O)CC[C@@H]4[C@H]3C(=C)C[C@@]21CC [etonogestrel] | 111% | -2.37%
8 | CCC(C)(Oc1ccc(C2(c3ccc(OC(C)(CC)C(=O)O)cc3)CCCCC2)cc1)C(=O)O (stereo not drawn) [Clinofibrate] | 87.7% | -2.91%
9 | CCCCC1(COC(=O)CCC(=O)O)C(=O)N(c2ccccc2)N(c2ccccc2)C1=O [suxibuzone] | 102% | -0.947%
14 | Nc1ncnc2c1ncn2[C@@H]1O[C@H](CO)[C@@H](O)[C@@H]1O [vidarabine] | 92.8% and 82.8% | -2.03% and 1.13%
11 | CCC(=O)c1ccc2c(c1)N(CCCN1CCN(CCO)CC1)c1ccccc1S2 [carfenazine] | 41.9% | -6.49%
38 | C(=C\c1ccccc1)/CN1CCN(C(c2ccccc2)c2ccccc2)CC1 | 108% | -0.206%
42 | CCOC(=O)c1nc(=O)c2cc3cc(OC)c(OC)cc3nc2[nH]1 [pirolate] | 95.4% | -1.02%
33 | COc1ccc(C(=O)CC(=O)c2ccc(C(C)(C)C)cc2)cc1 [avobenzone] | 106% | -0.875%
41 | CCCSS/C(CCO)=C(/C)N(C=O)Cc1cnc(C)nc1N [prosultiamine] | 95.5% | -1.6%
20 | CN(C)CCC=C1c2ccccc2C=Cc2ccccc21 | 104% | -2.35%
10 | CC(=O)/N=c1/sc(S(N)(=O)=O)nn1C [methazolamide] | 94.1% | 2.11%
1 | Nc1ccc(S(=O)(=O)Nc2ccccc2)cc1 [sulfabenz] | 128% | -5.33%
2 | N=C(N)NCc1ccc2c(c1)OCCO2 [guabenxan] | 89.7% | 0.103%
23 | O=C(O)c1ccc[n+]([O-])c1 [oxiniacic acid] | 100% | -1.63%
19 | CN1N=C(C(N)=O)CCC1=O [medazomide] | 113% | 1.63%
26 | CSCC[C@H](N)C(=O)O [methionine] | 111% | -3.88%
40 | Nc1ncnc2nc[nH]c12 | 93.9% | -9.86%

(listing goes on)

Row | Compound | mCherry [1] | percent effect [2]
47 | CO/N=C(\C(=O)N[C@@H]1C(=O)N2C(C(=O)OCOC(=O)C(C)(C)C)=C(/C=C\c3scnc3C)CS[C@H]12)c1csc(N)n1 | 139% | 1.75%
48 | CCCCCCc1ccc(O)cc1O | 98.4% | -1.14%
49 | S=P(N1CC1)(N1CC1)N1CC1 [thiotepa] | 97.2% | -2.12%
50 | CC(C)NC(=N)NC(=N)Nc1ccc(Cl)cc1 [Proguanil] | 84.3% | -0.136%
51 | COc1cc(C(=O)OCCN2CCN(CCCN3c4ccccc4Sc4ccc(Cl)cc43)CC2)cc(OC)c1OC [metofenazate] | 33.6% | 6.68%
52 | CCC(C)(C)c1ccc(CC(C)CN2C[C@@H](C)O[C@@H](C)C2)cc1 (stereo partly drawn) [amorolfine] | 99.7% and 88.1% | -1.48% and -8.95%
53 | Nc1ccc(C(=O)O)c(O)c1 | 79.1% | -5.04%
54 | NCCCC[C@H](N[C@@H](CCc1ccccc1)C(=O)O)C(=O)N1CCC[C@H]1C(=O)O | 99.6% | -1.62%
55 | CC[C@H]1OC(=O)C[C@@H](O)[C@H](C)[C@@H](O[C@@H]2O[C@H](C)[C@@H](O[C@H]3C[C@@](C)(O)[C@@H](O)[C@H](C)O3)[C@H](N(C)C)[C@H]2O)[C@@H](CC=O)C[C@@H](C)C(=O)/C=C/C(C)=C/[C@@H]1CO[C@@H]1O[C@H](C)[C@@H](O)[C@@H](OC)[C@H]1OC | 132% | 3%
56 | CCN(CC)C(=O)[C@@]1(c2ccccc2)C[C@H]1CN [Levomilnacipran] | 97.8% | -2.3%
57 | CC1(C)CCC(C)(C)c2cc(NC(=O)c3ccc(C(=O)O)cc3)ccc21 [tamibarotene] | 110% | -0.252%
58 | CCCCCCCCCCCCCCCC(=O)O[C@@H]1[C@@H](O)[C@@H](O)[C@@H]([C@H](NC(=O)[C@@H]2C[C@@H](CCC)CN2C)[C@H](C)Cl)O[C@@H]1SC [Clindamycin palmitate·HCl] | 147% | -5.88%
59 | C[C@H](Cc1ccc(O)c(O)c1)[C@@H](C)Cc1ccc(O)c(O)c1 [Masoprocol] | 81.2% | -2.94%
60 | N=C(N)NCCC[C@@H](NC(=O)[C@@H]1CCCN1C(=O)[C@@H]1CSSCCC(=O)N[C@@H](Cc2ccc(O)cc2)C(=O)N[C@@H](Cc2ccccc2)C(=O)N[C@@H](CCC(N)=O)C(=O)N[C@@H](CC(N)=O)C(=O)N1)C(=O)NCC(N)=O | 111% | -4.64%
61 | COc1cc(N)c(Cl)cc1C(=O)NC1CCN(CCCOc2ccc(F)cc2)CC1OC (stereo not drawn) [cisapride] | 56.3% | -2.92%
62 | O=C1C(O)=C(O)C(=O)C(O)=C1O [tetroquinone] | 94.9% | -5.37%
63 | Nc1ccc(S(=O)(=O)Nc2ncccn2)cc1 [sulfadiazine] | 117% and 123% | 0.885% and 7.04%
64 | CCOC1O[C@H]([C@@H](COCc2ccccc2)OCc2ccccc2)[C@H](OCc2ccccc2)[C@H]1O (stereo partly drawn) | 96% | -1.49%
65 | COC(=O)C1=C(C)NC(C)=C(C(=O)OC(C)(C)CN(C)CCC(c2ccccc2)c2ccccc2)C1c1cccc([N+](=O)[O-])c1 (stereo not drawn) [lercanidipine] | 112% | -2.53%
66 | CCCNC(C)C(=O)Nc1c(C)csc1C(=O)OC (stereo not drawn) [articaine] | 97.5% | -4.58%
67 | CCCCc1ncc(/C=C(\Cc2cccs2)C(=O)O)n1Cc1ccc(C(=O)O)cc1 [eprosartan] | 102% and 90.3% | -0.0909% and 3.04%
68 | CC(=O)OCC(=O)[C@@]12N=C(C)O[C@@H]1C[C@H]1[C@@H]3CCC4=CC(=O)C=C[C@]4(C)[C@H]3[C@@H](O)C[C@@]12C [deflazacort] | 107% | -4.66%
69 | O=C(O)CCC(=O)Nc1ccc(S(=O)(=O)Nc2nccs2)cc1 [succinylsulfathiazole] | 97.5% | -2.47%

Reprinted at random: 2 compounds from above, in no set order.
Row | Compound | mCherry [1] | percent effect [2]
50 | CC(C)NC(=N)NC(=N)Nc1ccc(Cl)cc1 [Proguanil] | 84.3% | -0.136%
53 | Nc1ccc(C(=O)O)c(O)c1 | 79.1% | -5.04%
